From patent publication US7956084B2, “Phenyl thiophene carboxamide compounds as inhibitors of the enzyme IKK-2” (AstraZeneca AB, priority 2001, dated 2011)
Some entries share one result that the patent states for a list of compounds.

molecular target: T1, IKK-2 (Homo sapiens, UniProt O14920); experiment: IKK-2 Filter Kinase Assay; type: biochemical; settings: 1 μM ATP, 33P ATP, 1-53 GST-IκB substrate, 21° C. for 80 minutes
T1 sequence (O14920 1-756): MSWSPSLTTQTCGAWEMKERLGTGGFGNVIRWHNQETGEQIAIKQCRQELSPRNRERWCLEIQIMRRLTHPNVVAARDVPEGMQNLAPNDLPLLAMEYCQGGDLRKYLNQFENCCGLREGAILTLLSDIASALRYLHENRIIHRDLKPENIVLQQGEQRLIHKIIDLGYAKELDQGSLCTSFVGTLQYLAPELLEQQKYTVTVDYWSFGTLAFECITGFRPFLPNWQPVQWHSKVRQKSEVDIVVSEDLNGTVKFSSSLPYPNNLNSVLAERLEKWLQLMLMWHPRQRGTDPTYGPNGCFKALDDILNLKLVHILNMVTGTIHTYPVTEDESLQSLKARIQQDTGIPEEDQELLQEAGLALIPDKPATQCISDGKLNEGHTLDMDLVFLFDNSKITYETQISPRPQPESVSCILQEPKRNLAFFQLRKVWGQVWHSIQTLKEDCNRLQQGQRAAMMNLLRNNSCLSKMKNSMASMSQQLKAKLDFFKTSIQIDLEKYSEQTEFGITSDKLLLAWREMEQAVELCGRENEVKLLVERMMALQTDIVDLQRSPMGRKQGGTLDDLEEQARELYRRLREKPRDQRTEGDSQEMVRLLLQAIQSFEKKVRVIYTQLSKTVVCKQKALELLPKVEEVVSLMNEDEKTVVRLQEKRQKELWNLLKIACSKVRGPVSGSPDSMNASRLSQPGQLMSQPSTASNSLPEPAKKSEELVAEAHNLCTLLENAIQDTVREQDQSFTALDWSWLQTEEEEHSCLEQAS

IC50, < 10 µM:
Cc1c(-c2ccc(CN3CCOCC3)cc2)sc(NC(N)=O)c1C(N)=O [Example 108, 2-[(Aminocarbonyl)amino]-4-methyl-5-{4-[4-morpholino]methylphenyl}-3-thiophenecarboxamide]
NC(=O)Nc1sc(-c2ccc(CN3CCC(O)CC3)cc2)cc1C(N)=O [Example 109, 2-[(Aminocarbonyl)amino]-5-[4-((4-hydroxypiperidin-1-yl)methyl)phenyl]thiophene-3-carboxamide]
NC(=O)Nc1sc(-c2ccccc2N2CCNCC2)cc1C(N)=O [Example 110, 2-[(Aminocarbonyl)amino]-5-(2-piperazin-1-ylphenyl)thiophene-3-carboxamide]
CN1CCN(c2ccccc2-c2cc(C(N)=O)c(NC(N)=O)s2)CC1 [Example 111, 2-[(Aminocarbonyl)amino]-5-[2-(4-methylpiperazin-1-yl)phenyl]thiophene-3-carboxamide]
CNC1CCN(c2ccccc2-c2cc(C(N)=O)c(NC(N)=O)s2)C1 (stereo not drawn) [Example 112]
NC(=O)Nc1sc(-c2ccc(OC3CCCC3)cc2OCCN2CCCCC2)cc1C(N)=O [Example 113, 2-[(Aminocarbonyl)amino]-5-[4-(cyclopentyloxy)-2-(2-{piperidin-1-yl}ethoxy)phenyl]thiophene-3-carboxamide]
NC(=O)Nc1sc(-c2ccc(N3CCCC3)cc2OCCN2CCCCC2)cc1C(N)=O [Example 114]
NC(=O)Nc1sc(-c2ccc(N3CCCCC3)cc2OCCN2CCCCC2)cc1C(N)=O [Example 115, 2-[(Aminocarbonyl)amino]-5-[4-piperidin-1-yl-2-(2-{piperidin-1-yl}ethoxy)phenyl]thiophene-3-carboxamide]
NC(=O)Nc1sc(-c2ccc(CN3CCOCC3)cc2OCCN2CCCCC2)cc1C(N)=O [Example 116, 2-[(Aminocarbonyl)amino]-5-[4-(morpholin-4-ylmethyl)-2-(2-{piperidin-1-yl}ethoxy)phenyl]thiophene-3-carboxamide]
COCCOc1ccc(-c2cc(C(N)=O)c(NC(N)=O)s2)c(OCCN2CCCCC2)c1 [Example 117, 2-[(Aminocarbonyl)amino]-5-[4-(2-methoxyethoxy)-2-(2-piperidin-1-ylethoxy)phenyl]thiophene-3-carboxamide]
NC(=O)Nc1sc(-c2ccc(N3CCOCC3)cc2OCCN2CCCCC2)cc1C(N)=O [Example 118, 2-[(Aminocarbonyl)amino]-5-[4-morpholin-4-yl-2-(2-piperidin-1-ylethoxy)phenyl]thiophene-3-carboxamide]
NC(=O)Nc1sc(-c2ccccc2OCCO)cc1C(N)=O [Example 119, 2-[(Aminocarbonyl)amino]-5-[2-(2-hydroxyethoxy)phenyl]thiophene-3-carboxamide]
NC(=O)Nc1sc(-c2ccccc2O[C@@H]2CCOC2)cc1C(N)=O [Example 120, (3R)-2-[(Aminocarbonyl)amino]-5-{2-[tetrahydrofuran-3-yloxy]phenyl}-3-thiophenecarboxamide]
NC(=O)Nc1sc(-c2ccccc2O[C@H]2CCOC2)cc1C(N)=O [Example 121, (3S)-2-[(Aminocarbonyl)amino]-5-{2-[tetrahydrofuran-3-yloxy]phenyl}-3-thiophenecarboxamide]
NC(=O)Nc1sc(-c2ccccc2OC2CCOCC2)cc1C(N)=O [Example 122]
NC(=O)Nc1sc(-c2ccccc2OCC2CC2)cc1C(N)=O [Example 123, 2-[(Aminocarbonyl)amino]-5-{2-[cyclopropylmethoxy]phenyl}-3-thiophenecarboxamide]
NC(=O)Nc1sc(-c2ccccc2OC2CCCC2)cc1C(N)=O [Example 124, 2-[(Aminocarbonyl)amino]-5-{2-[cyclopentyloxy]phenyl}-3-thiophenecarboxamide]
CC(C)N1CCC(Oc2ccccc2-c2cc(C(N)=O)c(NC(N)=O)s2)C1 (stereo not drawn) [Example 125, 2-[(Aminocarbonyl)amino]-5-{2-[(1-isopropylpyrrolidin-3-yl)oxy]phenyl}-3-thiophenecarboxamide]
CCN1CCC(Oc2ccccc2-c2cc(C(N)=O)c(NC(N)=O)s2)C1 (stereo not drawn) [Example 126, 2-[(Aminocarbonyl)amino]-5-{2-[(1-ethylpyrrolidin-3-yl)oxy]phenyl}-3-thiophenecarboxamide]
CC(C)(C)OC(=O)N1CCC(Oc2ccccc2-c2cc(C(N)=O)c(NC(N)=O)s2)C1 (stereo not drawn) [Example 127, 2-[(Aminocarbonyl)amino]-5-{2-[(1-tert-butyloxycarbonyl-3-pyrrolidinyl)oxy]phenyl}-3-thiophenecarboxamide]
NC(=O)Nc1sc(-c2ccccc2OC2CCNC2)cc1C(N)=O (stereo not drawn) [Example 128]
CN1CCCCC1COc1ccccc1-c1cc(C(N)=O)c(NC(N)=O)s1 (stereo not drawn) [Example 129, 2-[(Aminocarbonyl)amino]-5-{2-[(1-methylpiperidin-2-yl)methoxy]phenyl}-3-thiophenecarboxamide]
CN1CCC[C@H]1COc1ccccc1-c1cc(C(N)=O)c(NC(N)=O)s1 [Example 130, (2S)-2-[(Aminocarbonyl)amino]-5-(2-{[1-methylpyrrolidin-2-yl]methoxy}phenyl)-3-thiophenecarboxamide]
COCCN1CCC(Oc2ccccc2-c2cc(C(N)=O)c(NC(N)=O)s2)C1 (stereo not drawn) [Example 131, 2-[(Aminocarbonyl)amino]-5-(2-{[1-(2-methoxyethyl)pyrrolidin-3-yl]oxy}phenyl)-3-thiophenecarboxamide]
CN1CCC[C@@H]1COc1ccccc1-c1cc(C(N)=O)c(NC(N)=O)s1 [Example 132, (2R)-2-[(Aminocarbonyl)amino]-5-(2-{[1-methylpyrrolidin-2-yl]methoxy}phenyl)-3-thiophenecarboxamide]
CC1CCCC(C)(C)N1CCOc1ccccc1-c1cc(C(N)=O)c(NC(N)=O)s1 (stereo not drawn) [Example 133, 2-[(Aminocarbonyl)amino]-5-[2-(2-(2,2,6-tetramethylpiperidin-1-yl)ethoxy)phenyl]-3-thiophenecarboxamide]
CC(C)N1CCC(Oc2ccc(Cl)cc2-c2cc(C(N)=O)c(NC(N)=O)s2)C1 (stereo not drawn) [Example 134, 2-[(Aminocarbonyl)amino]-5-{5-chloro-2-[(1-isopropylpyrrolidin-3-yl)oxy]phenyl}-3-thiophenecarboxamide]
CC(C)N1CCC(Oc2cc(F)ccc2-c2cc(C(N)=O)c(NC(N)=O)s2)C1 (stereo not drawn) [Example 135, 2-[(Aminocarbonyl)amino]-5-{4-fluoro-2-[(1-isopropylpyrrolidin-3-yl)oxy]phenyl}-3-thiophenecarboxamide]
CC(C)N1CCC(Oc2cc(F)c(F)cc2-c2cc(C(N)=O)c(NC(N)=O)s2)C1 (stereo not drawn) [Example 136, 2-[(Aminocarbonyl)amino]-5-{4,5-difluoro-2-[(1-isopropylpyrrolidin-3-yl)oxy]phenyl}-3-thiophenecarboxamide]
Cc1ccc(OC2CCN(C(C)C)C2)c(-c2cc(C(N)=O)c(NC(N)=O)s2)c1 (stereo not drawn) [Example 137, 2-[(Aminocarbonyl)amino]-5-{2-[(1-isopropylpyrrolidin-3-yl)oxy]-5-methylphenyl}-3-thiophenecarboxamide]
CC(C)N1CCC(Oc2ccc(C#N)cc2-c2cc(C(N)=O)c(NC(N)=O)s2)C1 (stereo not drawn) [Example 138, 2-[(Aminocarbonyl)amino]-5-{5-cyano-2-[(1-isopropylpyrrolidin-3-yl)oxy]phenyl}-3-thiophenecarboxamide]
COc1ccc(OC2CCN(C(C)C)C2)c(-c2cc(C(N)=O)c(NC(N)=O)s2)c1 (stereo not drawn) [Example 139, 2-[(Aminocarbonyl)amino]-5-{2-[(1-isopropylpyrrolidin-3-yl)oxy]-5-methoxyphenyl}-3-thiophenecarboxamide]
CC(C)N1CCC(Oc2c(F)cc(F)cc2-c2cc(C(N)=O)c(NC(N)=O)s2)C1 (stereo not drawn) [Example 140, 2-[(Aminocarbonyl)amino]-5-{3,5-difluoro-2-[(1-isopropylpyrrolidin-3-yl)oxy]phenyl}-3-thiophenecarboxamide]
COc1cccc(-c2cc(C(N)=O)c(NC(N)=O)s2)c1OC1CCN(C(C)C)C1 (stereo not drawn) [Example 141, 2-[(Aminocarbonyl)amino]-5-{2-[(1-isopropylpyrrolidin-3-yl)oxy]-3-methoxyphenyl}-3-thiophenecarboxamide]
CC(C)N1CCC(Oc2ccc(C(F)(F)F)cc2-c2cc(C(N)=O)c(NC(N)=O)s2)C1 (stereo not drawn) [Example 142, 2-[(Aminocarbonyl)amino]-5-{2-[(1-isopropylpyrrolidin-3-yl)oxy]-5-trifluoromethylphenyl}-3-thiophenecarboxamide]
CC(C)N1CCC(Oc2cc(C(F)(F)F)ccc2-c2cc(C(N)=O)c(NC(N)=O)s2)C1 (stereo not drawn) [Example 143, 2-[(Aminocarbonyl)amino]-5-{2-[(1-isopropylpyrrolidin-3-yl)oxy]-4-trifluoromethylphenyl}-3-thiophenecarboxamide]
